Source: patent publication US20250326796 (published 2025)

assay: general procedure: Fmoc solid-phase peptide synthesis; Fmoc-Rink amid-MBHA Resin (degree of substitution=0.44 mmol/g; GL Biochem (Shanghai) Ltd.); HCTU/DIPEA; settings: whole synthesis, HPLC, dual wavelengths (214 nm and 254 nm), scale of the general procedure 1 g resin

Final purity (method not given), ≥97.2%:
IGYLRLILPELQARIRTYNQHYNNLLR
LAWSYYIGYLRL
NFNVAHGLAWSYYIG
NFNVAHGLAWSYYIGYLRLIL
NFNVAHGLAWSYYIGYLRLILPELQ
NFNVAHGLAWSYYIGYLRLILPELQARIRTYN
NFNVAHGLAWSYYIGYLRLILPELQARIRTYNQHYNNL
NFNVAHGLAWSYYIGYLRLILPELQARIRTYNQHYNNLL
NFNVAHGLAWSYYIGYLRLILPELQARIRTYNQHYNNLLR
YLRLILPELQARIRTYNQHYNNLLR

End groups of sequences in plain letters are not given here. One purity is given for all peptides; the source may state it once.
